Results are given in words; binding and its absence hold for the method and conditions named. In cells and extracts the contact can be indirect. Some results given as binding are weak or reduced against the parent protein; the word gives no strength.
Target: RAGE in HEK293T cell lysates (pull-down assay) (UniProt Q15109)
Experiment: Ni-NTA pull-down of RAGE from HEK293T cell lysates with His-tau, quantified immunoblot

Amino acid sequences for entries named in this document (tags omitted). A change or cut given only in a name is not applied to a line headed by its entry. Chains listed by the source or under a name are the forms on record and can include a tag or linker. Residues count along the entry.
UniProt Q15109, residues 23-404: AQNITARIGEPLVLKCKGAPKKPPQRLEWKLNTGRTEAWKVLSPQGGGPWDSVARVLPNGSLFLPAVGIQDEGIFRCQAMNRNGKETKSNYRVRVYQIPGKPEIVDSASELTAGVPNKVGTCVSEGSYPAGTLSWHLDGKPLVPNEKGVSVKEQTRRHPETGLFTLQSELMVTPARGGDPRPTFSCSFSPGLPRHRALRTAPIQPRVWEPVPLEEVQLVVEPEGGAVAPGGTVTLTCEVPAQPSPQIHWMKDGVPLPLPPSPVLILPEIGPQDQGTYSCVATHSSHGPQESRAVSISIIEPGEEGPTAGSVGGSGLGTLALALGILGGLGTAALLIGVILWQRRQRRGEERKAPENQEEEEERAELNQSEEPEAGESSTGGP
tau fibrils of 6xHis tagged human 0N4R tau (P10636, form named): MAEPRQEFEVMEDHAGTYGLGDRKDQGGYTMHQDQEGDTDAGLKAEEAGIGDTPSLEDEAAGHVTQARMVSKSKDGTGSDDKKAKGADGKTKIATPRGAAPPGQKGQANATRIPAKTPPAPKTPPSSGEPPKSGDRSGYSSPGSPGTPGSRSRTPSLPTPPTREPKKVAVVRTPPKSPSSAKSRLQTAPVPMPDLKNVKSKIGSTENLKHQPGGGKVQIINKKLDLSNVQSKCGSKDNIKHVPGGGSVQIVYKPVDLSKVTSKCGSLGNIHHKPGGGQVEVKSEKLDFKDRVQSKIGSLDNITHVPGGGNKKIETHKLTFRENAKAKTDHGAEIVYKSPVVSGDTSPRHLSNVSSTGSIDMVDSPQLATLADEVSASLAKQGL

tau fibrils of 6xHis tagged human 0N4R tau (from UniProt P10636 1-383) (ligand)
binding: binds
